Assay results from patent US8138172B2, “8-oxoadenine derivatives acting as modulators of TLR7” (AstraZeneca AB, priority 2006, dated 2012).
Some of these results come from one statement about several compounds together.

What follows are compounds tested against T1, Recombinant human TLR7 (Homo sapiens, UniProt Q9NYK1) (assay: Human TLR7 assay (SEAP reporter in HEK293 cells)). Conditions: HEK293 cell line stably expressing human TLR7 and pNiFty2-SEAP reporter; overnight incubation at 37° C., 0.1% (v/v) DMSO.
T1 construct: expressed in transfected cells; host or cells: HEK293 cell line stably expressing the pNiFty2-SEAP reporter plasmid
T1 sequence (Q9NYK1 27-1049): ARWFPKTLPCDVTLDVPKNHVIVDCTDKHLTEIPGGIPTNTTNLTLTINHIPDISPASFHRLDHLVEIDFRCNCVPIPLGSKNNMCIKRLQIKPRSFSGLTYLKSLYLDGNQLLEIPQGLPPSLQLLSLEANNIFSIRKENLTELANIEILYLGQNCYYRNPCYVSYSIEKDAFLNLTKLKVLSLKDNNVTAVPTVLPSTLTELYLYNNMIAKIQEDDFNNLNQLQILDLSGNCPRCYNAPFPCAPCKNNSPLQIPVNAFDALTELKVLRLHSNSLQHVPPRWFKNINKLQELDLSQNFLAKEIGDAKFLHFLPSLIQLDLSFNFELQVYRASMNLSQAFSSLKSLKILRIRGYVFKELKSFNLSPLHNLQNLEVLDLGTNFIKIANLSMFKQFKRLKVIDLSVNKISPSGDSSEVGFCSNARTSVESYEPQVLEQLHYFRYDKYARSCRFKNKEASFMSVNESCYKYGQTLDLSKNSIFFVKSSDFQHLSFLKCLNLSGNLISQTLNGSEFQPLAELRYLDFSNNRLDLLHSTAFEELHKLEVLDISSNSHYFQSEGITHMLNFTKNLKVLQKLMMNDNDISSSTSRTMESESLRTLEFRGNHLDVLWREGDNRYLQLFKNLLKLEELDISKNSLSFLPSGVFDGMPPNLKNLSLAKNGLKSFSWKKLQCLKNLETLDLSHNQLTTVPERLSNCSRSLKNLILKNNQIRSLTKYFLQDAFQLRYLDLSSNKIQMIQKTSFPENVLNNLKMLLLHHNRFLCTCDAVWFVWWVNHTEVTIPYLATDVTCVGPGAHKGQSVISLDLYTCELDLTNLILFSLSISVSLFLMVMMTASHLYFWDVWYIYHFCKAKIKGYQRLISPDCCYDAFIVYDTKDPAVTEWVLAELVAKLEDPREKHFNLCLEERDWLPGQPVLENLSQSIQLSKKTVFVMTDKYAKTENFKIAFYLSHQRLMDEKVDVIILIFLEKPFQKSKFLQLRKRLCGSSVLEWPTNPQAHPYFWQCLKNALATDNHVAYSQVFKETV
Assay type: cell-based

pMEC (log of the minimal effective concentration of compound to induce SEAP release), > 7.7:
CCCCOc1nc(N)c2[nH]c(=O)n(CCCN(Cc3ccc(CC(=O)OC)cc3)C(=O)CN3CCN(C)CC3)c2n1 [Example 1, Methyl[4-({[3-(6-amino-2-butoxy-8-oxo-7,8-dihydro-9H-purin-9-yl)propyl][(4-methylpiperazin-1-yl)acetyl]amino}methyl)phenyl]acetate]
CCCCOc1nc(N)c2[nH]c(=O)n(CCCN(Cc3ccc(CC(=O)OC)cc3)C(=O)CN3CCN(CCO)CC3)c2n1 [Example 7, Methyl{4-[([3-(6-amino-2-butoxy-8-oxo-7,8-dihydro-9H-purin-9-yl)propyl]{[4-(2-hydroxyethyl)piperazin-1-yl]acetyl}amino)methyl]phenyl}acetate]
CCCCOc1nc(N)c2[nH]c(=O)n(CCCN(Cc3ccc(CC(=O)OC)cc3)C(=O)CCCN(C)C)c2n1 [Example 4, Methyl[4-({[3-(6-amino-2-butoxy-8-oxo-7,8-dihydro-9H-purin-9-yl)propyl][4-(dimethylamino)butanoyl]amino}methyl)phenyl]acetate]
CCCCOc1nc(N)c2[nH]c(=O)n(CCCN(Cc3cccc(CC(=O)OC)c3)C(=O)CCC(=O)OC(C)(C)C)c2n1 [Example 18, tert-Butyl 4-{[3-(6-amino-2-butoxy-8-oxo-7,8-dihydro-9H-purin-9-yl)propyl][3-(2-methoxy-2-oxoethyl)benzyl]amino}-4-oxobutanoate]
